Data from patent US10849906B2, “Use of Akt2 in diagnosis and treatment of tumor” (priority 2015, dated 2020).
At least one compound was matched to its structure with a doubt left.

Assays:
CCRF-CEM cells = test: Apoptosis by Annexin V-FITC PI double staining (flow cytometry), CCRF-CEM; assay type: cell-based, human
Experimental: (§1) The control group was not added with any reagents. All experiments were performed in triplicate.
(§2) Apoptosis was detected by Annexin V-FITC PI double staining method (flow cytometry kit (FITC, PI double staining), Sangon Biotech (Shanghai) Co., Ltd.)), and the collected cells were washed once with phosphate buffered saline (PBS) (135 mM NaCl, 2.7 mM KCl, 1.5 mM KH2PO4 and 8 mM K2HPO4, pH 7.2); the 4× binding buffer was diluted to a 1× binding buffer with deionized water, then the cells were resuspended with 195 ul of the 1× binding buffer at a cell density of 2-5×10^5/ml; 5 μl of Annexin V-FITC was added to the 195 μl of the cell resuspension and mixed, and incubated in dark at room temperature for 10 minutes; the cells were washed once with 200 μl of the 1× binding buffer, and then resuspended in 190 μl of the 1× binding buffer; 10 μl of propidium iodide (20 μg/ml) was added. A flow cytometry device (Beckman company) was used for detection, and the rate of apoptosis was analyzed using Summit software. […]

Molt4 cells = test: Apoptosis by Annexin V-FITC PI double staining, Molt4; assay type: cell-based, human; settings: compared to the only dexamethasone group; FIG. 2E
Experimental: as §2

Jurkat cells = test: Apoptosis by Annexin V-FITC PI double staining, Jurkat; assay type: cell-based, human; settings: compared to the only/single dexamethasone group; FIG. 2F, 4J
Experimental: as §2
The transfected cells were selected and passaged for 3 to 5 passages after resuscitation, with Interferin™ as transfection reagent, and the transfection procedure was performed in accordance with the instruction of the transfection reagent. […] The cells were transfected with green fluorescein-labeled siRNA (FAM-siRNA) (siRNA at a final concentration of 20 μM, 1.25 μl/well), and the transfection efficiency was observed using a fluorescence microscope 24 hours later. […]

[1] = test system: Akt/FoxO3a/Bim signaling pathway in CCRF-CEM cells; test: Western blot of Akt/FoxO3a/Bim signaling pathway proteins in CCRF-CEM cells; assay type: cell-based, human
Experimental: as §1
Protein detection by Western blot: in the examples of the present invention, Akt antibody (rabbit derived), phosphorylated Akt antibody (rabbit derived), FoxO3a antibody (rabbit derived), phosphorylated FoxO3a antibody (rabbit derived) and GAPDH antibody (rabbit derived) and secondary antibodies were all purchased from CST company. The cells were collected in a centrifuge tube and centrifuged at 1000 rpm, the supernatant was discarded and the cells were washed twice with PBS pre-cold at 4° C.; cell lysis buffer (150 mM NaCl, 1% NP-40, 0.1% SDS, 2 μg/ml Aprotinin, 2 μg/ml Leupeptin, 1 mM PMSF, 1.5 mM EDTA, 1 mM sodium vanadate) was added and the cells were lysed on ice for 40 minutes, the cell lysate was centrifuged at 20000 rpm, 4° C. for 15 minutes, and the supernatant was collected; a protein loading buffer for sodium dodecyl sulfate polyacrylamide (SDS-PAGE) gel electrophoresis (1.25 mL 1MTris-HCl (pH6.8), 0.5 g SDS, 25 mg BPB, 2.5 mL glycerol, 5 mL deionized water) was added, followed by boiling for 5 minutes to denature proteins; the loading buffer containing denatured proteins was applied to 10% SDS-PAGE for electrophoresis at 120 V, and then transferred to a PVDF membrane (Sangon Biotech (Shanghai) Co., Ltd.) at 130 V for 1.5 hours; after the membrane transfer was completed, the PVDF membrane was immediately rinsed with a Western washing solution (150 mmol/L NaCl, 50 mmol/L Tris-HCl (pH 7.5)) for 1-2 minutes; added with 5% non-fat milk powder (Shanghai Biotechnology Co., Ltd.), agitated gently and then blocked at room temperature for 60 minutes; a primary antibody diluted appropriately with 5% non-fat milk powder was added, and incubated overnight at room temperature with gentle agitating; the primary antibody was recovered and the membrane was washed three times with the washing solution for 5-10 minutes each; a horseradish peroxidase-labeled secondary antibody diluted appropriately with the Western washing solution was added, and incubated at room temperature for 1 hour with gentle agitating; the secondary antibody was recovered and the membrane was washed three times with the Western washing solution for 5-10 minutes each. An appropriate amount of developing solution (DAB 4 mg, 30% hydrogen peroxide 15 μL, 0.01 M Tris-Cl (pH 7.5) 5 mL) was dropped on the PVDF membrane, the image was detected using a bioluminescence image colorimeter and a gel imaging system (Thermo company), and the quantitative analysis of bands was performed using Image Lab software.
The cells were cultured in RPMI 1640 complete medium (Gibco company) containing 10% fetal bovine serum (FBS, Gibco company) in an incubator (Thermo company) at 5% CO2 and 37° C. until reaching logarithmic growth phase, then different concentrations of inhibitors and/or dexamethasone/ethanol/DMSO were added to the culture medium, followed by further culturing (for addition of dexamethasone/ethanol/DMSO, for 48 hours, and for addition of inhibitor, for 24 hours), and apoptosis was detected by Annexin V-FITC PI double staining and proteins were detected by Western blot, as described in Example 1.
Methods: CCRF-CEM cells were cultured in RPMI 1640 complete medium (Gibco company) containing 10% fetal bovine serum (FBS, Gibco company) in an incubator (Thermo company) at 5% CO2 and 37° C. until reaching logarithmic growth phase, then DMSO, dexamethasone and different inhibitors (DMSO: 0.1%, dexamethasone: 0.1 μM, inhibitors: 0.8 μM) were added to the culture medium, and further cultured (for addition of dexamethasone or DMSO, for 48 hours, and for addition of inhibitors, for 24 hours), and the proteins were detected by Western blot, as described in Example 1.

CEM-DR cells = test: Apoptosis by Annexin V-FITC PI double staining, CEM-DR; assay type: cell-based, human; settings: for apoptosis of CEM-DR cells treated with dexamethasone: FIG. 1C
[2] = test system: CCRF-CEM tumor-bearing mice; test: Glucocorticoid sensitization in CCRF-CEM tumor-bearing nude mice; assay type: in vivo; settings: compared to the NC group; FIG. 7C
Experimental: The overall survival time, tumor size and spleen cell apoptosis of the tumor-bearing mice were measured, and the pathological HE staining was carried out to tumors.
The overall survival, tumor size and spleen size of the tumor-bearing mice were measured, the pathological sections of tumor were for HE and Ki-67 staining, and the pathological sections of spleen were for HE, CD3, and TdT staining.

[3] = 0.1 μM dexamethasone vs blank group, FIG. 1B

SMILES	apoptosis of CCRF-CEM cells induced by dexamethasone, inhibitor plus dexamethasone (CCRF-CEM cells; compared to dexamethasone alone, FIG. 2A: Akt inhibitor 1 μM, dexamethasone 1 μM, LY294002 30 μM, FIG. 2G, 2J, 2K)	apoptosis rate of Molt4 cells, inhibitor in combination with dexamethasone (Molt4 cells)	apoptosis of Jurkat cells, inhibitor in combination with dexamethasone (Jurkat cells)	expression of pro-apoptosis factor Bim, inhibitor plus dexamethasone ([1]; compared to the only dexamethasone group, FIG. 2B, 2H)	expression of phosphorylated FoxO3a, inhibitor plus dexamethasone ([1]; compared to the only dexamethasone group, FIG. 2B, 2H, 2I)	apoptosis of CCRF-CEM cells induced by dexamethasone (CCRF-CEM cells; dexamethasone 0.1 μM or 1 μM, 48 h, FIG. 1A)	apoptosis of 20th generation cells (CEM-DR) treated with dexamethasone (CEM-DR cells; dexamethasone 1 μM, 25 μM, 50 μM and 100 μM for 48 hours)	apoptosis of CEM-DR cells treated with dexamethasone (CEM-DR cells; dexamethasone 25 μM, 50 μM, 100 μM)	apoptosis of CEM-DR cells treated with dexamethasone (CEM-DR cells; dexamethasone 200 μM)	spleen size [2]	expression of phosphorylated Akt [1, 3]	expression of phosphorylated FoxO3a (Ser 253) [1, 3]	phosphorylated Akt (Ser473)/total Akt [1, 3]	phosphorylated FoxO3a (Ser 253)/total FoxO3a protein [1, 3]	total FoxO3a expression [1, 3]
O=c1cc(N2CCOCC2)oc2c(-c3ccccc3)cccc12 [LY294002]	significantly increased	significantly increased	significantly increased	up-regulated	significantly down-regulated	–	–	–	–	–	–	–	–	–	–
C[C@@H]1C[C@H]2[C@@H]3CCC4=CC(=O)C=C[C@]4(C)[C@@]3(F)[C@@H](O)C[C@]2(C)[C@@]1(O)C(=O)CO [dexamethasone]	–	–	–	–	–	increased gradually along with the increased concentration of dexamethasone	not significantly increased	not significantly increased	significantly increased	significantly reduced	significantly down-regulated	decreased	significantly decreased	significantly down-regulated	increased
